{
  "sequences": {"note": "Sequences of proteins named here, by UniProt entry; tags and fusion partners are left off. A change or cut given only in a name is not applied to a line headed by its entry.", "UniProt Q15506": "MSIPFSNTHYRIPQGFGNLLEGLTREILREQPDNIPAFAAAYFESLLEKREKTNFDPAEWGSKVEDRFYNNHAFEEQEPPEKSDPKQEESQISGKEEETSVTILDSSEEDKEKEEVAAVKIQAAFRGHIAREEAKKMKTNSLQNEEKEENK", "UniProt Q15398": "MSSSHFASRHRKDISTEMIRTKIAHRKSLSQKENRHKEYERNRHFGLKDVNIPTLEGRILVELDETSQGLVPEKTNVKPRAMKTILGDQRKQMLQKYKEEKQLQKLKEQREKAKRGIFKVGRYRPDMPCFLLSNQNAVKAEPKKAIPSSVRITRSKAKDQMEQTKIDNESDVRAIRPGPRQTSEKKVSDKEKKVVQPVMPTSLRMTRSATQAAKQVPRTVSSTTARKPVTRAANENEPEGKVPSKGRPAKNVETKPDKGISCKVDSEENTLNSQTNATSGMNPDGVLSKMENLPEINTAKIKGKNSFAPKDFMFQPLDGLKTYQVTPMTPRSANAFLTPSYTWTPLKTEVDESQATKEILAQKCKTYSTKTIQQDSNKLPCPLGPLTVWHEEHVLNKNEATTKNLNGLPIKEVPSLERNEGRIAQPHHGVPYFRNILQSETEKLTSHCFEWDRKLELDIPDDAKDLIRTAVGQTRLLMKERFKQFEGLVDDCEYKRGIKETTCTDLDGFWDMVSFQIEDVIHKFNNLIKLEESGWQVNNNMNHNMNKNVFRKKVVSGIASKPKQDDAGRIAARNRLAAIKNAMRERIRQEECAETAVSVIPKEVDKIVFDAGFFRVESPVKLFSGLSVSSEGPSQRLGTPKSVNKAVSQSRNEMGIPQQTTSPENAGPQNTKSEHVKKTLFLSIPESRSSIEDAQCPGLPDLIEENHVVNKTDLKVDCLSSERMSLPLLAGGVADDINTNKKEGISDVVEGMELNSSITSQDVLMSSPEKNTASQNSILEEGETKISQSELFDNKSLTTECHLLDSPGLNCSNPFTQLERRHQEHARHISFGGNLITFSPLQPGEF", "UniProt Q16143, whole entry": "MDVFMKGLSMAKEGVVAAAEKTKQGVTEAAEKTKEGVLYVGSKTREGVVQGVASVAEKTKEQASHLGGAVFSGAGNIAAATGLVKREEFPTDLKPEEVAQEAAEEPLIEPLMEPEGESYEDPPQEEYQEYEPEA", "UniProt Q16763": "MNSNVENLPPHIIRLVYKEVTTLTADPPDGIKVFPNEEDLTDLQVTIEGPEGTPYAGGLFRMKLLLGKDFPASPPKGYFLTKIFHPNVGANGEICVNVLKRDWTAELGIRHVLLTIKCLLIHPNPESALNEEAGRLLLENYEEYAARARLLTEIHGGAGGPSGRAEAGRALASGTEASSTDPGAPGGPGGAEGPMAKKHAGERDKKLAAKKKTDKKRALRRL", "UniProt Q15831": "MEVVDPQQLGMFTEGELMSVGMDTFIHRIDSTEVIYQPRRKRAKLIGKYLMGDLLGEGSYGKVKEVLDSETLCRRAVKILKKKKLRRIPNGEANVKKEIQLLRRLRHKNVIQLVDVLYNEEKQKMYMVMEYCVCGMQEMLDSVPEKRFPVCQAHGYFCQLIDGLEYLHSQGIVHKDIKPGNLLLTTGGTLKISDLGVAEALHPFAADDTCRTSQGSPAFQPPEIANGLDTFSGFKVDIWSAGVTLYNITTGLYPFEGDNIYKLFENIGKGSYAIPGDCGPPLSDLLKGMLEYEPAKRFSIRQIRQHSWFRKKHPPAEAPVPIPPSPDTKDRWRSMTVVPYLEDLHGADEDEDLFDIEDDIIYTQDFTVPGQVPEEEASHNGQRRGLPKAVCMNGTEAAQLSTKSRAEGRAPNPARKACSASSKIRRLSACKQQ", "UniProt Q15149": "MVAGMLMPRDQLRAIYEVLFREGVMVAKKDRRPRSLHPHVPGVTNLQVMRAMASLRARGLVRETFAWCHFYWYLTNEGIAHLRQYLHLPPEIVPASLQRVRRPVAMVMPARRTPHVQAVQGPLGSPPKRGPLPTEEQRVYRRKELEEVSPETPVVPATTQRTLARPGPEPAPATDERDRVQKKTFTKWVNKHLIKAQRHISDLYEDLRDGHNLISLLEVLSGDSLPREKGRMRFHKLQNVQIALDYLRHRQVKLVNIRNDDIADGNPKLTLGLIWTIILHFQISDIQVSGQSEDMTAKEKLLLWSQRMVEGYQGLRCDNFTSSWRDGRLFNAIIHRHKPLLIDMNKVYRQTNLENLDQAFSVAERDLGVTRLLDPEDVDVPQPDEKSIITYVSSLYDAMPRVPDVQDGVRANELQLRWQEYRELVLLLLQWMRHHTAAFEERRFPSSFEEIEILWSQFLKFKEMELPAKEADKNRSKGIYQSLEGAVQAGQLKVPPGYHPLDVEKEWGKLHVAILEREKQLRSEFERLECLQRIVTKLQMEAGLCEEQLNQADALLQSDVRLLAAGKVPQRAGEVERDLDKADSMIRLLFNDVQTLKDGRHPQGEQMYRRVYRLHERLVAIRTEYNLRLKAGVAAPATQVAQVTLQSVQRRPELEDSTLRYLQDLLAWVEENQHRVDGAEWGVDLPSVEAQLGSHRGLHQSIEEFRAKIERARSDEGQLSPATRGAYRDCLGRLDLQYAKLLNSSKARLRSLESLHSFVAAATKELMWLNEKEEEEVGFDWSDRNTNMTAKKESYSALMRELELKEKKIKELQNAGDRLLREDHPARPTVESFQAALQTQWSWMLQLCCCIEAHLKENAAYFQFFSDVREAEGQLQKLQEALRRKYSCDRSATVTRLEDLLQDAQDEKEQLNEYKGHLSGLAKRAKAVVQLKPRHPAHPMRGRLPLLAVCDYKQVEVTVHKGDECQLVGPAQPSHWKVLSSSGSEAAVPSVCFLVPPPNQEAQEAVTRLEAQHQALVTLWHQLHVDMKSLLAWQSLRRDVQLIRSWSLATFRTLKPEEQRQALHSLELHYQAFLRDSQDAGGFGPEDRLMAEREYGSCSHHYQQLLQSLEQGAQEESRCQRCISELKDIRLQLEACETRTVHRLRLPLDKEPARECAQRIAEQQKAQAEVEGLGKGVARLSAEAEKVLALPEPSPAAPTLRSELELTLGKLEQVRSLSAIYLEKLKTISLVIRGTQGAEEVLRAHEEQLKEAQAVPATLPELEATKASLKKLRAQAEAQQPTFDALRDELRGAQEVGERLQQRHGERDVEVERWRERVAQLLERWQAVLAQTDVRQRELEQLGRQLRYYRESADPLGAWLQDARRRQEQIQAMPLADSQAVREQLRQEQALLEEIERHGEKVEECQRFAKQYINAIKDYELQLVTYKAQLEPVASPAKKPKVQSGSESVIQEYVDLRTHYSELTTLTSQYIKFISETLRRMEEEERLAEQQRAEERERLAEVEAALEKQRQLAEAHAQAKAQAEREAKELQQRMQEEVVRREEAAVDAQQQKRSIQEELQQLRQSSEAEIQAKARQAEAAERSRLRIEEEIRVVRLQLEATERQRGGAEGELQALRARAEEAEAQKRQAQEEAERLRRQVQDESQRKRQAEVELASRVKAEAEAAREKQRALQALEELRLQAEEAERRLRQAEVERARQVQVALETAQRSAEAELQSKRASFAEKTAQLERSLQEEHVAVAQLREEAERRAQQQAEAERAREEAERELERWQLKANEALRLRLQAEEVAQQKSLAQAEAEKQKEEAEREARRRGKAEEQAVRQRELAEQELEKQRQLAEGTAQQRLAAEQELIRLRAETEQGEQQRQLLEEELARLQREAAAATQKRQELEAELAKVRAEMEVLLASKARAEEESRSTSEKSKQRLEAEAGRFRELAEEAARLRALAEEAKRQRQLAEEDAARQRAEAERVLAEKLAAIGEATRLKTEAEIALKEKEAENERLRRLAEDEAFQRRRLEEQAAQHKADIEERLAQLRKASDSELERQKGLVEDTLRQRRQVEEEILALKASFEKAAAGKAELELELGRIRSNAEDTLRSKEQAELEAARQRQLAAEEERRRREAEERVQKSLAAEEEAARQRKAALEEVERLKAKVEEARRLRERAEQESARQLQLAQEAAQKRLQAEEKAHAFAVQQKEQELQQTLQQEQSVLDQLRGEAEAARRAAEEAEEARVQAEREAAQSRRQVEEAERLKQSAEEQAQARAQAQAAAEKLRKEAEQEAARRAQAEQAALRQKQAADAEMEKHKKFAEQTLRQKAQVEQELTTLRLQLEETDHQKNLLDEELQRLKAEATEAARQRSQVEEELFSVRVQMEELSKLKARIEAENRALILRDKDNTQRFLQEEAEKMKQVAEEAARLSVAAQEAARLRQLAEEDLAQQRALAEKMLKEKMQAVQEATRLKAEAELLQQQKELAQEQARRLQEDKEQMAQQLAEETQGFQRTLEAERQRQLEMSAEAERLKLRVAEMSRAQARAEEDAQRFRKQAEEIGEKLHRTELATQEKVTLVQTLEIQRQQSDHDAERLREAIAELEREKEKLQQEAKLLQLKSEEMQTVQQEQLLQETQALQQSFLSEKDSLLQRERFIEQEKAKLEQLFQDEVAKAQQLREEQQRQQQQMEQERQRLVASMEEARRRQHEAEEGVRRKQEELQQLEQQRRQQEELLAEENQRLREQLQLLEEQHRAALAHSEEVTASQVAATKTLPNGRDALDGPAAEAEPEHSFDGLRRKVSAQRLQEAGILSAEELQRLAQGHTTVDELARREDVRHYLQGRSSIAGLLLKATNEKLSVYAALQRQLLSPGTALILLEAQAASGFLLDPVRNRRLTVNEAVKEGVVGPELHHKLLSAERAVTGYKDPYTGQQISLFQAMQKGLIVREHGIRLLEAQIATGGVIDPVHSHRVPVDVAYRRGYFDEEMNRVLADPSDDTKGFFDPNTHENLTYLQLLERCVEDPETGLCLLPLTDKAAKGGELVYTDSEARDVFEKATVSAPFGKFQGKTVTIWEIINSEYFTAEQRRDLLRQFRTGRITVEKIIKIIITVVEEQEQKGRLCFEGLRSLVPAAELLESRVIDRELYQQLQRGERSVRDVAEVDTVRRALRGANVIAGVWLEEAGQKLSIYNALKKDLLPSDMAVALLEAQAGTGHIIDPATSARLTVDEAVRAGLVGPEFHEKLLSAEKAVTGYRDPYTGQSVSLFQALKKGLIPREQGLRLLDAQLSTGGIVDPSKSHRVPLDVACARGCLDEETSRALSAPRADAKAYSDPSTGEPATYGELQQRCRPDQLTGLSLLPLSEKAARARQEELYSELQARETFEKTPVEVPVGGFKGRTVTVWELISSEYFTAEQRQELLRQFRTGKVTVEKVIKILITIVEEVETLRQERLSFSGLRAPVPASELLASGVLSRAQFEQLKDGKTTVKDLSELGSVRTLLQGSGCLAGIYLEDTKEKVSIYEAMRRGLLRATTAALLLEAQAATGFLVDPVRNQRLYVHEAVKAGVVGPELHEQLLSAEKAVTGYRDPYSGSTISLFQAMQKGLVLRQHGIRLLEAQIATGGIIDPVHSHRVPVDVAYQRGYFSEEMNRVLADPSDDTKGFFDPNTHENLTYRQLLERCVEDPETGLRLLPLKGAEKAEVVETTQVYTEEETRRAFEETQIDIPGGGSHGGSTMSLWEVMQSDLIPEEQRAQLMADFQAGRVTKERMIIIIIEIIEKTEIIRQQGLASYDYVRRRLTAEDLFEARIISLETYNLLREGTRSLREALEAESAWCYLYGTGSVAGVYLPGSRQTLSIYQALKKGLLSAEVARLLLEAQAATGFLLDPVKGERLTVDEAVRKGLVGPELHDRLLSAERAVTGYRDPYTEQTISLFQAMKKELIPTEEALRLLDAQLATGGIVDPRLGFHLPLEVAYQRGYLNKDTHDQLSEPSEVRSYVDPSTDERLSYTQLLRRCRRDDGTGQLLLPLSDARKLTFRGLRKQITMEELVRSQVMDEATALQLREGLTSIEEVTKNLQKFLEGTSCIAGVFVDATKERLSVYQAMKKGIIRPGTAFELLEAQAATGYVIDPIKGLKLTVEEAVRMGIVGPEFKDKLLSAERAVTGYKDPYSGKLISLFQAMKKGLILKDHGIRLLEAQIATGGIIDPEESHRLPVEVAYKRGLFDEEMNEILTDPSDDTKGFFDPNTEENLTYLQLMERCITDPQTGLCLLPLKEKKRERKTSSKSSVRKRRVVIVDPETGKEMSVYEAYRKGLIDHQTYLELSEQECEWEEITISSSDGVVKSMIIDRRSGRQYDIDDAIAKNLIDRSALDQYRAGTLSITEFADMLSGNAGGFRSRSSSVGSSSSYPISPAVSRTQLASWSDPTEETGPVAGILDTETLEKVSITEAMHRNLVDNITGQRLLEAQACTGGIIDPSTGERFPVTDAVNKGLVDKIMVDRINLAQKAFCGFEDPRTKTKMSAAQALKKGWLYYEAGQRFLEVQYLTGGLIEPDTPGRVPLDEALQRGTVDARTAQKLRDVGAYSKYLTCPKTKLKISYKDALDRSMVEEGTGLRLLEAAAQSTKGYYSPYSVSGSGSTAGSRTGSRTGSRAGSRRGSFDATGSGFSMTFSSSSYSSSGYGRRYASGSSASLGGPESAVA"},
  "source": "the supplement of paper PMC12819154",
  "about": "“High-throughput peptide-centric local stability assay extends protein–ligand identification to membrane proteins, tissues and bacteria” (Nature Structural & Molecular Biology, 2025)",
  "compound": "Cc1nc(Nc2ncc(C(=O)Nc3c(C)cccc3Cl)s2)cc(N2CCN(CCO)CC2)n1 [dasatinib]",
  "assay": "log2 fold change of tryptic peptide abundance, ligand vs vehicle (limited proteolysis) (log2 ratio); higher = more trypsin-susceptible (destabilized)",
  "details": "ligand concentration: 5 uM; sample: K562 cleared lysate",
  "note": "This is one part of the list. Small differences around the control level are noise.",
  "data": [
    {"target": "UniProt Q15018 (peptide sequence: VQAVCADVEKSER, peptide start residue: 220)", "values": [
      {"measurement": "log2 fold change", "value": 0.22}
    ]},
    {"target": "UniProt Q32M78 (peptide sequence: KHMKTPTEEK, peptide start residue: 240)", "values": [
      {"measurement": "log2 fold change", "value": 0.0753}
    ]},
    {"target": "PDS5A (peptide sequence: NIDPVKNK, peptide start residue: 1212) (UniProt Q29RF7)", "values": [
      {"measurement": "log2 fold change", "value": -0.161}
    ]},
    {"target": "UniProt Q2M3D2 (peptide sequence: MQDEPYQALVAELHRR, peptide start residue: 215)", "values": [
      {"measurement": "log2 fold change", "value": -0.476}
    ]},
    {"target": "CLPP (peptide sequence: QLYNIYAK, peptide start residue: 204) (UniProt Q16740)", "values": [
      {"measurement": "log2 fold change", "value": -0.442}
    ]},
    {"target": "TRIP10 (peptide sequence: TEVEQAYAK, peptide start residue: 36) (UniProt Q15642)", "values": [
      {"measurement": "log2 fold change", "value": -0.26}
    ]},
    {"target": "UniProt Q15370 (peptide sequence: RPPDEQR, peptide start residue: 37)", "values": [
      {"measurement": "log2 fold change", "value": 0.379}
    ]},
    {"target": "SPA17 (peptide sequence: TNSLQNEEKEENK, peptide start residue: 139) (UniProt Q15506)", "values": [
      {"measurement": "log2 fold change", "value": -0.0744}
    ]},
    {"target": "PDK1 (peptide sequence: ALSTDSIERLPVYNK, peptide start residue: 391) (UniProt Q15118)", "values": [
      {"measurement": "log2 fold change", "value": -0.406}
    ]},
    {"target": "TRIP4 (peptide sequence: KILEEENSLAEYHSR, peptide start residue: 334) (UniProt Q15650)", "values": [
      {"measurement": "log2 fold change", "value": 0.228}
    ]},
    {"target": "DLGAP5 (peptide sequence: TLFLSIPESR, peptide start residue: 679) (UniProt Q15398)", "values": [
      {"measurement": "log2 fold change", "value": -0.134}
    ]},
    {"target": "TRMT5 (peptide sequence: HLIGQVMIDKNPGITSAVNK, peptide start residue: 220) (UniProt Q32P41)", "values": [
      {"measurement": "log2 fold change", "value": 0.172}
    ]},
    {"target": "SLC1A5 (peptide sequence: HYRGPAGDATVASEKESVM, peptide start residue: 523) (UniProt Q15758)", "values": [
      {"measurement": "log2 fold change", "value": 0.244}
    ]},
    {"target": "UniProt Q16143 (peptide sequence: QGVTEAAEK, peptide start residue: 24)", "values": [
      {"measurement": "log2 fold change", "value": 0.0684}
    ]},
    {"target": "RABEP1 (peptide sequence: SVLQEDAEKLRK, peptide start residue: 246) (UniProt Q15276)", "values": [
      {"measurement": "log2 fold change", "value": -0.27}
    ]},
    {"target": "UBE2S (peptide sequence: LLLGKDFPASPPK, peptide start residue: 64) (UniProt Q16763)", "values": [
      {"measurement": "log2 fold change", "value": -0.175}
    ]},
    {"target": "STIL (peptide sequence: NITNEVLQTK, peptide start residue: 1197) (UniProt Q15468)", "values": [
      {"measurement": "log2 fold change", "value": -0.363}
    ]},
    {"target": "PLCL1 (peptide sequence: KMLTAYDLMIQESR, peptide start residue: 966) (UniProt Q15111)", "values": [
      {"measurement": "log2 fold change", "value": 0.363}
    ]},
    {"target": "UniProt Q16760 (peptide sequence: VLCETVKDFVAR, peptide start residue: 506)", "values": [
      {"measurement": "log2 fold change", "value": -0.416}
    ]},
    {"target": "UniProt Q3LXA3 (peptide sequence: SPGADLLQVLTK, peptide start residue: 511)", "values": [
      {"measurement": "log2 fold change", "value": -0.305}
    ]},
    {"target": "SEC23B (peptide sequence: FLQPVHK, peptide start residue: 231) (UniProt Q15437)", "values": [
      {"measurement": "log2 fold change", "value": 0.47}
    ]},
    {"target": "CWF19L2 (peptide sequence: DKRPGSLETCR, peptide start residue: 338) (UniProt Q2TBE0)", "values": [
      {"measurement": "log2 fold change", "value": -0.516}
    ]},
    {"target": "TCEA2 (peptide sequence: ISNLKDAK, peptide start residue: 195) (UniProt Q15560)", "values": [
      {"measurement": "log2 fold change", "value": 0.263}
    ]},
    {"target": "KIZ (peptide sequence: EQEVSSGCGDKSKK, peptide start residue: 536) (UniProt Q2M2Z5)", "values": [
      {"measurement": "log2 fold change", "value": 0.985}
    ]},
    {"target": "SF1 (peptide sequence: GNTLKNIEKECNAK, peptide start residue: 161) (UniProt Q15637)", "values": [
      {"measurement": "log2 fold change", "value": -0.388}
    ]},
    {"target": "UniProt Q15831 (peptide sequence: IDSTEVIYQPR, peptide start residue: 29)", "values": [
      {"measurement": "log2 fold change", "value": 0.105}
    ]},
    {"target": "TNIP1 (peptide sequence: VPEVVALGAAEK, peptide start residue: 290) (UniProt Q15025)", "values": [
      {"measurement": "log2 fold change", "value": -0.474}
    ]},
    {"target": "UniProt Q15406 (peptide sequence: TCLICGDR, peptide start residue: 59)", "values": [
      {"measurement": "log2 fold change", "value": 0.22}
    ]},
    {"target": "UniProt Q15149 (peptide sequence: LSVYQAMK, peptide start residue: 4084)", "values": [
      {"measurement": "log2 fold change", "value": 0.706}
    ]}
  ]
}
